A short description of the series: physchem.

Consider two compounds from ChEMBL document CHEMBL2380236, “Core refinement toward permeable β-secretase (BACE-1) inhibitors with low hERG activity” (J Med Chem, 2013).

Broadly, the chromatographic logD is a lipophilicity value derived from retention on a column. A higher chromatographic logD goes with higher lipophilicity.

Turning to `COc1cccc(-c2cccc(C3(C)CSCC(N)=N3)c2)c1` (configuration not stated), the chromatographic logD is 2.2.

`COc1cccc(-c2cccc(C3(c4ccncc4)N=C(N)CS3)c2)c1` (configuration not stated) showed a chromatographic logD of 3.3.
